According to PubChem BioAssay AID1347426 (Functional Genomics Laboratory (NCATS/FGL), 2020):
Out of some 31,000 sequences screened, about 1,400 (4.5%) were called active.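 Rule for the calls: active = median seed-adjusted z-score above 1 or below -1; inactive = the rest.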 This is one part of the list.

assay: Novel Modifiers of Survival Motor Neuron (SMN) Protein: Gene Identification via Genome-wide siRNA Screen; conditions: HEK293T SMN2-luciferase reporter, siRNA knockdown, 72 h; actives lie on both sides;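 note: luminescence tracks full-length SMN protein made from the SMN2 reporter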
In short: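 Luciferase signal, proportional to full-length SMN made from an SMN2 cDNA reporter in stable HEK293T cells, was read 72 h after siRNA reverse transfection. Values were expressed as MAD scores after non-targeting-control normalization and log10 conversion; seed analysis flagged off-targets.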

Row | Sequence | median seed-adjusted z-score
1 | GCUGCUCUCUUUCUGUAUATT against PIGO | inactive: -0.218
2 | GGAGAAUUACGUUUUAAUUTT against DOT1L | inactive: 0.164
3 | CUGUCGUUAUUGGAUAACATT against MGA | inactive: 0.0136
4 | GCUCUAUGUCUACAUCAAUTT against DAXX | inactive: 0.349
5 | GACCAGUCCUUGUCUAUGATT against MED1 | inactive: -0.855
6 | ACAGUGUGGUUCUUCAUUUTT against C1QL3 | inactive: -0.276
7 | UCUCAGAACCUACACCUGATT against LENG9 | inactive: 0.607
8 | GGAAAGAAGUGUCAGUCUUTT against PLG | inactive: 0.00473
9 | UGGUACGGCUGAUCAACAATT against SIL1 | inactive: 0.0292
10 | GGAGGGACAAUGCUGCAUATT against SIGLEC6 | inactive: 0.0176
11 | CUACCUUACAGGGAUUAUATT against HMGCR | inactive: 0.00174
12 | CCUAAUACCUUGCAAAGAATT against MPP6 | inactive: -0.625
13 | GGUUAAUUGAGAAUAGAAATT against ACTG1 | inactive: -0.227
14 | GACUUUGACUAUUCCGUCUTT against NLGN3 | inactive: -0.0279
15 | GUCCCGCAGAUUCAACAAATT against SSBP3 | inactive: 0.00592
16 | GGAAGAUUCAGUUAACAUUTT against NUDT3 | inactive: 0.674
17 | GAAGCUUGAUCUAAUUAUATT against ZNF182 | inactive: 0
18 | GAGUUAUGCAAGACAGUAUTT against MYSM1 | inactive: -0.116
19 | CCAGGAGAAUUGUUAGUGATT against GATA5 | inactive: 0.15
20 | GAUACGACAUGGAAUCAUUTT against ACTR3B | inactive: -0.301
21 | GGAGACUAAUGAACUUCAATT against AK5 | inactive: -0.0461
22 | GGAGUUCAUCAAUAUGAAUTT against MLF1 | inactive: 0.258
23 | GACCUGCUCUGUAACCUCATT against NAALADL1 | inactive: -0.0444

Row | Sequence | median seed-adjusted z-score
24 | GGCACGAUGUCAUCGAAUUTT against CHD8 | inactive: -0.158
25 | GCAUGAAGGACGACAGCAATT against TNNC1 | inactive: 0.442
26 | GCUGACGAAUAUGACCCUATT against RBM17 | inactive: 0
27 | GACCUACAAAUGCAAGGAATT against ZNF80 | inactive: 0.906
28 | GCGACUACAUUGACCAGCUTT against MAPK11 | inactive: 0.0663
29 | GUCCGUUAACUAUCUGUUATT against GNAI3 | inactive: 0.0656
30 | GUGACUCCGUGUAUACUUATT against GCA | inactive: -0.162
31 | GAAUGAUGUUAUAAAUCGATT against CENTB2 | inactive: 0
32 | GUCUGAGCGAGAGCAUUUATT against RAPSN | inactive: 0.143
33 | GCCUCUUCACCACCCACAATT against EPOR | inactive: -0.084
34 | GGAGCACAAGUUAAAGGUUTT against ELAC2 | inactive: 0.016
35 | GGCUGGAGGAAAUCGCUGATT against GUCA2A | inactive: 0.121
36 | GGUUUGUAGCUGCAACUGUTT against SLC4A8 | inactive: -0.474
37 | CACCCUGCAGAAUCACUAUTT against PARN | inactive: -0.0061
38 | GGGACGAGAUCGUUAGCUATT against VWF | inactive: 0.159
39 | GCAUAGACGGACAUCUGAATT against ABLIM3 | inactive: -0.29
40 | CGGCCGUACUAUAAAUGGATT against ADH4 | inactive: -0.0991
41 | CAAGGUUUUUAGUCGAAGATT against ZNF816A | inactive: 0.39
42 | GCCUGUCUGUGCACAUCGATT against SNTA1 | inactive: 0.212
43 | GAGCAUUUGUGCGCAAGUUTT against NRP2 | inactive: 0.477
44 | CCACUGCGUAUAUCACUUUTT against NPTN | inactive: 0.133
45 | GAUAAACUGCGGCUAAAGATT against EIF3J | inactive: -0.411
46 | UAAACUCGUUAGUCAAUUATT against SLC7A9 | inactive: 0.194

Part of the list above, with each value named.
UCUCAGAACCUACACCUGATT against LENG9
  median seed-adjusted z-score: inactive: 0.607
GAUACGACAUGGAAUCAUUTT against ACTR3B
  median seed-adjusted z-score: inactive: -0.301
GGAGACUAAUGAACUUCAATT against AK5
  median seed-adjusted z-score: inactive: -0.0461
GGGACGAGAUCGUUAGCUATT against VWF
  median seed-adjusted z-score: inactive: 0.159

Next records.

Row | Sequence | median seed-adjusted z-score
47 | GCAACAGCACAAUCCAGGATT against FUBP3 | inactive: 0.108
48 | GGAUGGGAACAACCCUGCATT against HMGN4 | inactive: -0.0471
49 | GGAUUUACGAGGAUGUAGATT against CALU | inactive: 0.123
50 | CCACAUCCGAGAGAACAUUTT against MYBPH | inactive: 0.0513
51 | GGAUUGGAACGAGUUACUATT against DARS | inactive: 0
52 | CAGCCGUUUUGGGAAGUAUTT against MYO5A | inactive: 0.00798
53 | GCCGGUGCUUUAUCUCAUUTT against GPR87 | inactive: 0.237
54 | CAUCUAGGAUUUUAAGGGATT against ASGR1 | inactive: -0.128
55 | CCGUCUAUAUGGAGUCUUUTT against ROR1 | inactive: -0.0044
56 | CCAAGAAUUUUGACGGUUUTT against DKFZP586H2123 | inactive: -0.38
57 | GGCUCUUUCGAGAAGCGAATT against MMP15 | inactive: -0.0489
58 | GAGUUCAUCCCUAACCGUATT against ZNF568 | inactive: 0.501
59 | GUACUGGAGUGAUGAGUUUTT against PARP12 | inactive: -0.287
60 | GCAGUUGCCCAAUACCAGATT against CMBL | inactive: 0
61 | GCCUUACACUGUGCUAAUATT against PDE10A | inactive: -0.382
62 | AGAGCAUCCUAAACGACCATT against SMUG1 | active: -1.38
63 | GACCCAACUUCGAUACCUATT against TLR8 | inactive: 0
64 | CACUGAAAGCUGUAACUCUTT against SRY | inactive: -0.949
65 | GUAAUGAUCCCAUAUCAGATT against CYLC1 | inactive: 0.177
66 | GGAGCAUACAGAUGUCUGATT against BRS3 | inactive: 0.224
67 | GAUGGGUUCUUGAACAUAUTT against EXOG | inactive: 0.746
68 | GAUCGGAAAUUGCAUAGUATT against BTBD10 | inactive: 0.695
69 | GCUCCUAUCUGCAAACUGUTT against SLC2A6 | inactive: 0.616
